Tested on: Streptococcus agalactiae NEM316
Assay: Final OD600 of Streptococcus agalactiae cultures after one hour of inducer treatment
Type: cell-based
[1] = BHI-Tris-glucose, aerated, 1 μM
[2] = BHI-Tris-glucose, aerated, 10 μM
[3] = BHI-Tris-glucose, non-aerated, 1 μM
[4] = BHI-Tris-glucose, non-aerated, 10 μM
[5] = M17-glucose, non-aerated, 10 μM

SMILES	final OD600 [1]	final OD600 [2]	final OD600 [3]	final OD600 [4]	final OD600 (M17-glucose, aerated, 1 μM)	final OD600 (M17-glucose, aerated, 10 μM)	final OD600 (M17-glucose, non-aerated, 1 μM)	final OD600 [5]
C=CC1=C(C)C2=[N+]3C1=Cc1c(C)c(C=C)c4[n]1[Ga-]31[n]3c(c(C)c(CCC(=O)O)c3=CC3=[N+]1C(=C4)C(C)=C3CCC(=O)O)=C2 (stereo not shown) [Ga-PPIX, gallium-protoporphyrin IX]	0.5	0.5	0.4	0.4	0.8	0.8	0.8	0.8
C=CC1=C(C)c2cc3[n-]c(cc4[n-]c(cc5nc(cc1n2)C(C)=C5C=C)c(C)c4CCC(=O)O)c(CCC(=O)O)c3C.[Cl-].[Fe+3] [hemin]	0.4	0.4	0.4	0.4	0.6	0.5	0.8	0.8
